Like-named read-outs stand apart in the source and are kept apart here.
Test system: hiPSC-derived 3D neurospheres
Experiment: cells
Format: cell-based
Conditions: Homo sapiens, 72 h
Description: After thawing, NSCs (generated as detailed above) were cultured on POL/L (0.002%/1 µg/cm^2) coated plates (50,000 cells/cm^2). When reached 100% confluence NSCs were propagated with Accutase treatment and single-cell suspension was plated onto a low-adherent 96-well plate with 10,000 cells/well in NMM medium. […] Samples were collected at Day 0 (D0), Day 2 (D2), and weekly intervals from the end of the 1st week (D7) until the end of the 6th week (D14, D21, D28, D35, and D42).
Eleven well-known compounds were tested in 7 different concentrations to generate concentration-response curves. The tested compounds with the used concentrations are detailed in Table S3. […] In each assay plate, 4 technical replicates were applied from each sample and 3 biological replicate assays were run (n = 3). The 3D cell cultures were exposed to the toxicants for 72 h (exposure schemes are detailed in Figure 5A or Figure 6A or Figure 7A). Vehicle control was used as a regular medium supplemented with 0.1% DMSO.
ATP viability assay was performed with CellTiter-Glo® 3D Cell Viability Assay, according to the manufacturer’s protocol (Promega). Neurospheres were lysed with 100 μL CellTiter-Glo® 3D Reagent for 60 min at RT. Luminescence signal was recorded with a Thermo VarioScan Flash (Thermo Fisher Scientific) plate reader.
All results were analyzed using Prism 5 (GraphPad Software, La Jolla, CA, USA) and handled in Microsoft Office 2010 (Microsoft, Redmond, WA, USA) software. For normalization of the concentration response, the average values of positive control were used as 0% and the average of vehicle control served as 100%. Four parameter curve fitting methods were used to determine EC10 and EC50 values, where the data on the graphs represent the average of three biological replicates. The “n” value corresponds to the number of biological replicates for each tested concentration. Analysis of data is presented as the mean ± SEM. Significance of data was determined with paired T test for RT-qPCR (* p < 0.01) and with One-way ANOVA for concentration response (* p < 0.05; ** p < 0.01).

With `COc1cc2c(c(OC)c1OC)-c1ccc(OC)c(=O)cc1[C@@H](NC(C)=O)CC2` [Colchicine, (S)-N-(5,6,7,9-Tetrahydro-1,2,3,10-tetramethoxy-9-oxobenzo[a]heptalen-7-yl)acetamide] as the compound, how does the EC10 (read-out: EC10 (cell viability), D28 3D neurospheres, 72 h exposure) read?
Its EC10 is 0.692 nM.

What about the EC50 (read-out: EC50 (cell viability), D21 3D neurospheres, 72 h exposure) of the same compound?
The EC50 was 324 nM.

What about the EC50 (read-out: EC50 (cell viability), D28 3D neurospheres, 72 h exposure) of the same compound?
Its EC50 is 229 nM.

What about the EC50 (read-out: EC50 (cell viability), D42 3D neurospheres, 72 h exposure) of the same compound?
Its EC50 is 120 nM.
